{"source": "PubChem BioAssay AID1224830 (NIAID, 2016)", "purpose": "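Host factors that control LPS-induced TNF expression in human macrophages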 (primary screen)", "system": "human THP-1 monocytic leukaemia cells, TNF dual-luciferase reporter clone, PMA-differentiated to macrophage-like cells", "reagent": "siRNA pool against human genes, 50 nM", "duration": "LPS for 4 h, given about 3 days after siRNA transfection", "challenge": "bacterial LPS (TLR4 ligand), 10 ng/ml", "read-out": "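Ratio of firefly to renilla light, scaled to the plate median and expressed as a robust z-score per replicate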", "reading the numbers": "TNF reporter robust z-score: higher = stronger TNF reporter response to LPS", "active means": "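Each well counts as active if its z-score is over 2.8 or under -1.5; controls are left without a call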", "note": "The whole screen tested about 18,000 reagents; below is a random part of them. About 2,900 of all reagents (16%) count as active. 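Calls are made per well; low scores hint the gene aids the LPS response, high scores that it dampens it.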 Repeated entries: four replicate wells of each siRNA pool."}
The opening 3 records as a preview:
{"target":"PDLIM3","TNF reporter robust z-score":-0.56,"activity call":"inactive"}
{"target":"PDLIM3","TNF reporter robust z-score":0.43,"activity call":"inactive"}
{"target":"PDLIM3","TNF reporter robust z-score":-0.34,"activity call":"inactive"}

Main list, repeating the preview:
{"target":"PDLIM3","TNF reporter robust z-score":-0.56,"activity call":"inactive"}
{"target":"PDLIM3","TNF reporter robust z-score":0.43,"activity call":"inactive"}
{"target":"PDLIM3","TNF reporter robust z-score":-0.34,"activity call":"inactive"}
{"target":"PDLIM3","TNF reporter robust z-score":0.92,"activity call":"inactive"}
{"target":"MTMR11","TNF reporter robust z-score":0.72,"activity call":"inactive"}
{"target":"MTMR11","TNF reporter robust z-score":0.43,"activity call":"inactive"}
{"target":"MTMR11","TNF reporter robust z-score":0.26,"activity call":"inactive"}
{"target":"MTMR11","TNF reporter robust z-score":2.98,"activity call":"active"}
{"target":"MC4R","TNF reporter robust z-score":-0.69,"activity call":"inactive"}
{"target":"MC4R","TNF reporter robust z-score":-0.6,"activity call":"inactive"}
{"target":"MC4R","TNF reporter robust z-score":-0.83,"activity call":"inactive"}
{"target":"MC4R","TNF reporter robust z-score":2.11,"activity call":"inactive"}
{"target":"GAS2L1","TNF reporter robust z-score":2.1,"activity call":"inactive"}
{"target":"GAS2L1","TNF reporter robust z-score":3.31,"activity call":"active"}
{"target":"GAS2L1","TNF reporter robust z-score":0.25,"activity call":"inactive"}
{"target":"GAS2L1","TNF reporter robust z-score":0.04,"activity call":"inactive"}
{"target":"RSPH1","TNF reporter robust z-score":-0.48,"activity call":"inactive"}
{"target":"RSPH1","TNF reporter robust z-score":0.53,"activity call":"inactive"}
{"target":"RSPH1","TNF reporter robust z-score":0.12,"activity call":"inactive"}
{"target":"RSPH1","TNF reporter robust z-score":0.44,"activity call":"inactive"}
{"target":"PI4KA","TNF reporter robust z-score":1.73,"activity call":"inactive"}
{"target":"PI4KA","TNF reporter robust z-score":1.26,"activity call":"inactive"}
{"target":"PI4KA","TNF reporter robust z-score":1.79,"activity call":"inactive"}
{"target":"PI4KA","TNF reporter robust z-score":0.67,"activity call":"inactive"}
{"target":"ZBTB49","TNF reporter robust z-score":-1.3,"activity call":"inactive"}
{"target":"ZBTB49","TNF reporter robust z-score":-1.24,"activity call":"inactive"}
{"target":"ZBTB49","TNF reporter robust z-score":-0.83,"activity call":"inactive"}
{"target":"ZBTB49","TNF reporter robust z-score":-1.18,"activity call":"inactive"}
{"target":"SCML1","TNF reporter robust z-score":1.62,"activity call":"inactive"}
{"target":"SCML1","TNF reporter robust z-score":0.53,"activity call":"inactive"}
{"target":"SCML1","TNF reporter robust z-score":0.45,"activity call":"inactive"}
{"target":"SCML1","TNF reporter robust z-score":0.17,"activity call":"inactive"}
